Laboratory results taken from the supplement of paper PMC8291772.
± gives the standard error. Some of the results follow. Repeats in this data set agree poorly, so a single value says little.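 The library contained all possible DNA sequences one to five nucleotides in length. General extension ability was assessed against a threshold of the blocked-version mean plus three standard deviations, and the probe detects only chains extended by seven or more dT.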

Sequences of proteins named here, by UniProt entry; tags and fusion partners are left off. A change or cut given only in a name is not applied to a line headed by its entry.
UniProt P06526: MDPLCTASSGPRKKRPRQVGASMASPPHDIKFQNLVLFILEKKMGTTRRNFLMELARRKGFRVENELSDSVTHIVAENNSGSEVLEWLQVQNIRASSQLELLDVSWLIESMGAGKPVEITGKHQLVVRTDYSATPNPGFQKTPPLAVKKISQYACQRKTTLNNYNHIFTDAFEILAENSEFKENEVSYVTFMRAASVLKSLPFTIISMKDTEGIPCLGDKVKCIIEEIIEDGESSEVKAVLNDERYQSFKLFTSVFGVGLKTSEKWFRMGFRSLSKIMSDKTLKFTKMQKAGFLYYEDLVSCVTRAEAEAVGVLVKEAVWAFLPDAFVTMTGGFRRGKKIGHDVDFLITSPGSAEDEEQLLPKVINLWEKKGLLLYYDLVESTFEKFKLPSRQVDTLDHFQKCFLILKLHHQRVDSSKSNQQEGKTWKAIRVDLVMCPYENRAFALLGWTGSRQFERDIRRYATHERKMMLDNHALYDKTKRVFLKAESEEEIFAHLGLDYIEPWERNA

Molecular target: terminal deoxynucleotidyl transferase (calf thymus) (UniProt P06526)
Assay: TdT poly-dT extension signal (Cy3 hybridisation fluorescence, uncapped minus capped) (fluorescence a.u.); higher = more efficient initiation of TdT extension
Conditions: initiator chemistry: D-DNA, free 3'-OH (5'-tethered via HEG linker)

Row | Sequence | TdT poly-dT extension signal
1 | AAATC | 3290 ± 250
2 | TGACT | 3120 ± 270
3 | GGTC | 3080 ± 430
4 | CTCTA | 3540 ± 320
5 | TTTG | 3430 ± 420
6 | AGCAT | 3430 ± 300
7 | GCCTC | 3050 ± 210
8 | TAAGG | 4020 ± 430
9 | CTGCA | 3500 ± 420
10 | CCGCA | 4010 ± 400
11 | CACGC | 2730 ± 340
12 | TTTAC | 2950 ± 350
13 | AGCGA | 3700 ± 520
14 | CCTA | 3120 ± 350
15 | ACGAA | 4120 ± 430
16 | ACGTC | 3620 ± 440
17 | AAGG | 3330 ± 690
18 | CCTGA | 3340 ± 320
19 | CGCCA | 3510 ± 390
20 | TAGGG | 4710 ± 640
21 | CCCTC | 2560 ± 320
22 | GAACT | 3090 ± 360
23 | CGATC | 2690 ± 320
24 | AGTA | 3010 ± 320
25 | TCATA | 3610 ± 430
26 | CATA | 3320 ± 380

Quoted from the listing.
Under TdT poly-dT extension signal, CCTGA reads 3340 ± 320
Under TdT poly-dT extension signal, GAACT reads 3090 ± 360

More entries follow.

Row | Sequence | TdT poly-dT extension signal
27 | GATGG | 3860 ± 500
28 | AGACA | 3880 ± 390
29 | CATTT | 4380 ± 270
30 | GTTTT | 4150 ± 500
31 | TAGAC | 1730 ± 440
32 | CGAGA | 4200 ± 340
33 | CGGGG | 3480 ± 960
34 | TCTCT | 2940 ± 300
35 | TTTTC | 3000 ± 240
36 | ATATA | 3320 ± 320
37 | GGAAC | 3400 ± 360
38 | CCCGC | 3570 ± 320
39 | TCGTG | 3560 ± 420
40 | GTGAT | 3390 ± 370
41 | TAACA | 3210 ± 380
42 | TCTTC | 2970 ± 230
43 | CCAAA | 4000 ± 470
44 | AATCC | 2620 ± 320
45 | AACGC | 3230 ± 330
46 | ATACG | 4050 ± 400
47 | CCGAA | 3830 ± 440
48 | ATTG | 3420 ± 510
49 | TGATC | 2970 ± 290
50 | TAAG | 3350 ± 370
51 | GAAAC | 2810 ± 350
52 | CACAT | 2800 ± 430

Row | Sequence | TdT poly-dT extension signal
53 | AGGTT | 3670 ± 380
54 | ACAAT | 3900 ± 410
55 | CAGAG | 3600 ± 550
56 | CATCC | 3140 ± 300
57 | TAAGC | 3270 ± 520
58 | TGCCC | 2860 ± 260
59 | GTACA | 3030 ± 360
60 | AAGCC | 3150 ± 310
61 | TCGTA | 3660 ± 340
62 | CTAA | 3230 ± 460
63 | CAAAC | 2900 ± 400
64 | AGGC | 3440 ± 330
65 | AACAC | 2940 ± 360
66 | TCACG | 4880 ± 620
67 | ATTCG | 3080 ± 330
68 | GTATT | 3960 ± 320
69 | TGGCT | 3050 ± 380
70 | GGACG | 4160 ± 290
71 | ATATC | 3080 ± 280
72 | CCCCC | 2740 ± 260
73 | TACAC | 2960 ± 320
74 | CGCAT | 3730 ± 260
75 | TGCTG | 3340 ± 550
76 | CAATA | 3670 ± 460
77 | GATCC | 3100 ± 270
78 | TTAGT | 3660 ± 420

Rewritten with tabs: part of the list above.
Row	Sequence	TdT poly-dT extension signal
67	ATTCG	3080 ± 330
68	GTATT	3960 ± 320

Further records.

Row | Sequence | TdT poly-dT extension signal
79 | CGTG | 3380 ± 580
80 | TGGT | 4700 ± 680
81 | ACCCG | 3250 ± 700
82 | CGCC | 3150 ± 370
83 | CACA | 3950 ± 340
84 | CGGAG | 4440 ± 470
85 | ATCAA | 3830 ± 320
86 | GCTTA | 4030 ± 600
87 | CGCGA | 4280 ± 760
88 | GGGCT | 4490 ± 350
89 | CGCCT | 3530 ± 310
90 | GGGGA | 4470 ± 630
91 | CACTC | 2320 ± 260
92 | CCGTT | 3740 ± 240
93 | CCCAC | 3430 ± 250
94 | TATC | 3060 ± 250
95 | GGAAA | 5250 ± 960
96 | AAACC | 2550 ± 300
97 | CTCAC | 3280 ± 290
98 | GTAAA | 3580 ± 540
99 | ACTTC | 3260 ± 300
100 | ATTA | 3710 ± 190
101 | TTCAA | 3470 ± 580
102 | GGTTG | 4050 ± 270
103 | TTCCG | 3340 ± 460
104 | TTGAT | 3950 ± 500

Row | Sequence | TdT poly-dT extension signal
105 | ATAGC | 3240 ± 470
106 | AACG | 3070 ± 310
107 | GGGTA | 3250 ± 590
108 | TCACA | 3460 ± 380
109 | ATTCA | 3470 ± 480
110 | GATCG | 3620 ± 280
111 | CGAGG | 4440 ± 350
112 | TTCG | 3400 ± 330
113 | CTTGA | 3940 ± 390
114 | GGCTT | 3250 ± 370
115 | ATCCA | 3740 ± 360
116 | CAAGC | 2670 ± 390
117 | AAGT | 3970 ± 310
118 | GTGAA | 3510 ± 370
119 | TACGA | 5010 ± 220
120 | CACTT | 4810 ± 580
121 | TAGCC | 2730 ± 300
122 | GTCGC | 3360 ± 300
123 | GAGG | 3570 ± 450
124 | AACCG | 2620 ± 390
125 | AAAA | 3730 ± 390
126 | GCATA | 3230 ± 490
127 | AATG | 3060 ± 340
128 | CGTTA | 3120 ± 350
129 | ATACC | 2800 ± 200
130 | TTGCC | 3010 ± 280

Row | Sequence | TdT poly-dT extension signal
131 | CAGT | 4420 ± 220
132 | TGCCA | 3300 ± 290
133 | TTAT | 3430 ± 330
134 | TGTTC | 3180 ± 320
135 | ATGGA | 4070 ± 470
136 | GGTTC | 3410 ± 660
137 | TACCG | 3900 ± 840
138 | GAATG | 4180 ± 340
139 | CTTGG | 4560 ± 860
140 | AGCAC | 3300 ± 300
141 | CTAGC | 3330 ± 380
142 | CGATT | 3030 ± 450
143 | TACA | 3720 ± 420
144 | GCGT | 3430 ± 390
145 | TAATA | 3700 ± 290
146 | ATTAA | 3950 ± 410
147 | CTTCT | 4030 ± 270
148 | GCGTC | 3360 ± 300
149 | AAATT | 4040 ± 310
150 | TATGG | 4390 ± 620
151 | GAGAC | 3390 ± 330

From entry 144 to 147, copied from above:
Row | Sequence | TdT poly-dT extension signal
144 | GCGT | 3430 ± 390
145 | TAATA | 3700 ± 290
146 | ATTAA | 3950 ± 410
147 | CTTCT | 4030 ± 270
